From PubChem BioAssay AID1259354 (Paczesny and Yang Labs, IUPUI and University of Michigan, 2018)
About 1,800 (2.3%) of roughly 78,000 compounds were called active. The shares of active, inactive and inconclusive entries below differ from those in the screen. Cut-off read from the data, not from the text of the source: active = inhibition above about 30%; inconclusive = mostly about 10% to 28%; inactive = weaker than that.

Protein sequences, listed by entry. Tags and fused reporters are not part of them. Lines headed by an entry give the natural chain unless they say otherwise; changes in a name come on top.
UniProt Q01638: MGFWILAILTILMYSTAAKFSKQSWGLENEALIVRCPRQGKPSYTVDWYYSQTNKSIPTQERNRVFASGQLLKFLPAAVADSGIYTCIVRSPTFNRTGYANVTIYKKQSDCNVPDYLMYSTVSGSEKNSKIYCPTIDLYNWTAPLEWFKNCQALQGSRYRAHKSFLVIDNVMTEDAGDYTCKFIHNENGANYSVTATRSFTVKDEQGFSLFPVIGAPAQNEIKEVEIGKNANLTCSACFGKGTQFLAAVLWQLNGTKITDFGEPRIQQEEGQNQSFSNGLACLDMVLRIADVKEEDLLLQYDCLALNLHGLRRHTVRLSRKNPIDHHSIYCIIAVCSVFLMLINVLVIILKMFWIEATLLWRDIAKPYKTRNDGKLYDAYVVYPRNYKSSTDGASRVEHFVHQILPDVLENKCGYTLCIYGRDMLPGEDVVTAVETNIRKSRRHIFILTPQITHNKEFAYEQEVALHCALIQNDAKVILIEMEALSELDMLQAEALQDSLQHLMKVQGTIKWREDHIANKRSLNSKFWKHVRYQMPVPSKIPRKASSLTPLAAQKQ

Target: Interleukin-1 receptor-like 1 (Homo sapiens) (UniProt Q01638)
Experiment: blocks human ST2 binding to IL-33, primary screen, biochemical, AlphaLISA (AID 1259354)
Conditions: AlphaLISA ST2-Fc/biotin-IL-33 interaction, 1 h; at 17 µM, stronger effect = higher value

Row | SMILES | inhibition
1 | O=C(O)C1CCNCC1 | inconclusive: 10%
2 | O=C(c1noc2c1CCCC2)N1CCCC1 | inconclusive: 10%
3 | CCc1nnsc1C(=O)N1CCC(=O)N(CC2CC2)C(C(C)C)C1 (stereo unspecified) | inactive
4 | CCOC(=O)c1c(C)oc2ccc(OCC(=O)OC)cc12 | inactive
5 | CC(C)N(C)CC#CC(O)(c1ccccc1)C1CCCC1 (stereo unspecified) | inconclusive: 16%
6 | Nc1ccc(S(=O)(=O)NCc2ccccn2)cc1 | inconclusive: 11%
7 | NC(=O)C1(C(=O)N2CCOC(c3ccc(F)cc3)C2)CC1 (stereo unspecified) | inconclusive: 10%
8 | COc1cc(OC)cc(C(=O)N=c2sc3cccc(OC)c3n2C)c1 | inactive
9 | CC1(C)CCC(NC(=O)[C@@H](N)CCC(=O)O)CC1 | inconclusive: 12%
10 | Cn1ccc(C(=O)NCc2nc(-c3cccc(F)c3)c(-c3ccccn3)[nH]2)n1 | inconclusive: 11%
11 | COc1cc(C2C(C(=O)Nc3ccc(C)cn3)=C(C)NC3=C2C(=O)CCC3)ccc1O (stereo unspecified) | inconclusive: 19%
12 | O=C(O)c1cc(-c2ccc3[nH]ccc3c2)cc(S(=O)(=O)N2CCOCC2)c1 | inconclusive: 26%
13 | CC(=O)NCCOc1ccc(C(=O)N2C[C@@H]3C4CCC(CC4)[C@@H]3C2)cc1 | inactive
14 | CCc1ccccc1NC(=O)CSCc1ccc(Cl)cc1 | inactive
15 | COc1c(F)cc(C(=O)N2CCC(c3ccc(C(=O)O)cc3)C2)cc1F (stereo unspecified) | inconclusive: 15%
16 | O=C1c2ccc(Oc3cccc([N+](=O)[O-])c3)cc2C(=O)N1c1c[nH]c(=O)[nH]c1=O | active: 31%
17 | CCOC(=O)c1c(C)n(C)c2c1cc(OC(=O)COc1ccccc1)c1ccccc12 | inconclusive: 15%
18 | COc1cccc2cc(-c3nc(-c4ccc(Br)cc4)cs3)c(=O)oc12 | inactive
19 | COc1ccc2cc3cc(C(=O)Nc4ccccc4OC)oc3nc2c1 | inconclusive: 12%
20 | CC(C)CN1C(=O)N(C)C(=O)C12CCN(Cc1cccc(Oc3ccccc3)c1)CC2 | inconclusive: 11%
21 | CN(CC1(CO)CC1)C(=O)CN1CCNCC1 | inactive

Row | SMILES | inhibition
22 | Cc1ccc(S(=O)(=O)Nc2cc(Br)c3oc4c(c3c2)C(=O)CCC4)c(C)c1 | inactive
23 | CC(CS(=O)O)C(=O)O (stereo unspecified) | inactive
24 | COc1ccc(C2=N/C(=C\c3cc(Br)cs3)C(=O)O2)cc1OC | inconclusive: 14%
25 | CC1=NN(c2ccc(Br)cc2)C(=O)/C1=C\c1ccc(N(C)C)cc1 | inconclusive: 15%
26 | CCN(Cc1ncccc1C(=O)O)C(C)C | inconclusive: 21%
27 | O=C1C(=O)N(CNc2cccc([N+](=O)[O-])c2)c2ccccc21 | inconclusive: 10%
28 | Cc1cccc(NS(=O)(=O)c2cccc(C(=O)Nc3ccc([N+](=O)[O-])cc3)c2)c1 | inconclusive: 28%
29 | CCN(CC)S(=O)(=O)N1CCC(C(=O)Nc2ccc3sc(NC(=O)C(C)C)nc3c2)CC1 | inconclusive: 20%
30 | Cn1c(=O)[nH]c(=O)c2c1nc(N1CCC(Cc3ccccc3)CC1)n2CCSc1ncccn1 | inactive
31 | CSc1ccc(/C=C2\C(=O)ON=C2c2ccccc2)cc1 | inconclusive: 15%
32 | COc1ccccc1-n1c(SCc2cccc(C)c2)nc2c(c1=O)SCC2 | inconclusive: 11%
33 | Cc1cc(NC(=O)CSc2nc3c([nH]c4ccccc43)c(=O)n2-c2cccc(Cl)c2)no1 | inconclusive: 11%
34 | CC(C)Oc1ccc(-c2cc(=O)[nH]c(=O)[nH]2)cc1 | inconclusive: 12%
35 | O=C(Nc1c(-c2ccccc2)nc2sccn12)c1ccccc1 | inconclusive: 20%
36 | CC1=NN(c2cc(C(=O)O)cc(C(=O)O)c2)C(=O)/C1=C\c1ccc(N(C)C)cc1 | active: 76%
37 | O=C(Nc1cc(Cl)ccc1Cl)c1ccc(S(=O)(=O)N2CCCC2)cc1 | inconclusive: 15%
38 | CCOC(=O)N1CCC(N2CCCC(C(=O)Nc3cccc(-n4cccn4)c3)C2)CC1 (stereo unspecified) | inconclusive: 17%
39 | Cn1ccnc1C1CCCCN1C(=O)CC1(c2ccccc2)CC(=O)N(CCc2ccccn2)C1=O (stereo unspecified) | inconclusive: 19%
40 | CCc1nccn1S(=O)(=O)c1cc(Br)ccc1OC | inconclusive: 17%
41 | O=C(O)C[C@@H]1CCN(C(=O)c2ccco2)C[C@@H]1CCN1CCN(c2cccc(C(F)(F)F)c2)CC1 | inconclusive: 20%
42 | CCn1nc(CC(C)C)cc1C(=O)N1CCc2[nH]nc(-c3ccccc3)c2C1 | inconclusive: 13%

Row | SMILES | inhibition
43 | Cc1cc(NC(=O)c2cc(-c3ccccc3O)on2)no1 | inactive
44 | CN(Cc1ccccc1)C(=O)C1c2ccccc2C(=O)N2CCc3ccccc3C12 (stereo unspecified) | inactive
45 | COc1cc2c(cc1OC)C1(CCCC1)CN=C2C | inactive
46 | CCCc1cnc(C)nc1NCc1cccnc1N1CCN(C(C)=O)CC1 | inconclusive: 12%
47 | O=C(Nc1nnc(COc2ccc(F)cc2)s1)c1ccco1 | inconclusive: 12%
48 | COc1cc2c(cc1OC)CN(C1CCCN(Cc3nc(-c4ccccc4)no3)C1)CC2 (stereo unspecified) | inactive
49 | O=C1c2ccc(F)cc2C(=O)N1CCO | inactive
50 | CC(=O)N1N=C(c2ccc(C)c([N+](=O)[O-])c2)OC12CCCC2 | inconclusive: 15%
51 | Cc1ccc(C(=O)CSc2n[nH]c(-c3ccncc3)n2)c(C)c1 | inconclusive: 24%
52 | CCC(C)NS(=O)(=O)c1cc(C(=O)N2CCCC2)cs1 (stereo unspecified) | inconclusive: 14%
53 | COc1ccccc1-c1coc2cc(OC(=O)C(C)(C)C)ccc2c1=O | inactive
54 | COc1cc(/C=C2/SC(=Nc3ccccc3)NC2=O)ccc1O | active: 38%
55 | COc1ccc(-c2nnc([C@H]3CCN(C4CCN(C)CC4)C3)o2)cc1 | inconclusive: 10%
56 | COc1cc(Br)cc(C=O)c1OC | inactive
57 | CSc1cccc(NC(=O)Cc2c(C(=O)O)[nH]c3ccc(Cl)cc23)c1 | inactive
58 | Cc1ccc(-n2cccn2)c(CN2CCC(n3nccc3NC(=O)C3CC3)CC2)c1 | inconclusive: 12%
59 | CC(c1cnn(-c2ccccc2)c1)n1ccnc1-c1cnc(N(C)C)nc1 (stereo unspecified) | inconclusive: 11%
60 | O=C(CN1CCN(c2ccc([N+](=O)[O-])cc2)CC1)N1CCCc2c1c(=O)oc1ccc(O)cc21 | inconclusive: 28%
61 | CC(C)C(NS(=O)(=O)c1cccc(C(=O)O)c1)C(=O)O (stereo unspecified) | inactive

Another view of 3 compounds above:

| Row | SMILES | inhibition |
| --- | --- | --- |
| 12 | O=C(O)c1cc(-c2ccc3[nH]ccc3c2)cc(S(=O)(=O)N2CCOCC2)c1 | inconclusive: 26% |
| 15 | COc1c(F)cc(C(=O)N2CCC(c3ccc(C(=O)O)cc3)C2)cc1F (stereo unspecified) | inconclusive: 15% |
| 33 | Cc1cc(NC(=O)CSc2nc3c([nH]c4ccccc43)c(=O)n2-c2cccc(Cl)c2)no1 | inconclusive: 11% |
